Where a chain is given by its changes, count along the chain named. Where two headings read alike, the source gives them in different places. No constants are given. Whether binding was seen depends on the method and setting. Binding seen in cells or lysates may run through a third protein. Here binding means that the protein was enriched with, or labelled near, the bait; the list need not be complete. For some assays here: A no says only that the protein was not detected with the bait. Sequences can lack the tags named with a protein. Values belong to the molecule of their own block, whether it stands above or below them.
Key:
Experiment in all cases: proximity labelling
[1] = biological target: T1, myc-BirA*-MYO1E tail (aa 692-1108) (human) (UniProt Q12965)
T1 sequence: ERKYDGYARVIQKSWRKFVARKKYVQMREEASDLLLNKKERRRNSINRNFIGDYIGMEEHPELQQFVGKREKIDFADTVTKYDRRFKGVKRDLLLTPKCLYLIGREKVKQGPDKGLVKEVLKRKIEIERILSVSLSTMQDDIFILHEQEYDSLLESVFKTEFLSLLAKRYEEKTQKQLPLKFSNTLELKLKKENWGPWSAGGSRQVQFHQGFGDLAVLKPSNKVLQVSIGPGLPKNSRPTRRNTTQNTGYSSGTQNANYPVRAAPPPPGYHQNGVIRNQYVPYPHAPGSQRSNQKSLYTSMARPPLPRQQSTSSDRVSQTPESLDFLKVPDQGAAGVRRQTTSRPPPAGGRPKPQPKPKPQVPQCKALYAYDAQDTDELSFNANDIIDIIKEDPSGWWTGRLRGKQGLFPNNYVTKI

Amino acid sequences for entries named in this document (tags omitted).
UniProt Q96AC1: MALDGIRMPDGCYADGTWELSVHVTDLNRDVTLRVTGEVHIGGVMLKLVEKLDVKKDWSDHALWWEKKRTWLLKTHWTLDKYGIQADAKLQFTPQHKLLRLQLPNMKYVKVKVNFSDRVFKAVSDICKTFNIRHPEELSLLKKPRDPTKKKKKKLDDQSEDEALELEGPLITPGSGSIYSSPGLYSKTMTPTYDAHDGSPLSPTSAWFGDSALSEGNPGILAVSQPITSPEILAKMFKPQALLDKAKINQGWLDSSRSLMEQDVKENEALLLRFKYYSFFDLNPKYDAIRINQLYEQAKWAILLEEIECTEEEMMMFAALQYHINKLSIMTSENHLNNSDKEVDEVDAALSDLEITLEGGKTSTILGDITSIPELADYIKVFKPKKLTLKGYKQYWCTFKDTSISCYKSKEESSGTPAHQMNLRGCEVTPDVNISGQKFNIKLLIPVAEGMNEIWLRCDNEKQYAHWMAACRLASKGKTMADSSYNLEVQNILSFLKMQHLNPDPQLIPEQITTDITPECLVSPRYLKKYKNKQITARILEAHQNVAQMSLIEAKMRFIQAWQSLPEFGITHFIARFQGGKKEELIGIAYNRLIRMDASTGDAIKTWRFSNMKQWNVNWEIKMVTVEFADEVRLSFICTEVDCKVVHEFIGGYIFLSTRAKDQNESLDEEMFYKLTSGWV
UniProt Q96B97: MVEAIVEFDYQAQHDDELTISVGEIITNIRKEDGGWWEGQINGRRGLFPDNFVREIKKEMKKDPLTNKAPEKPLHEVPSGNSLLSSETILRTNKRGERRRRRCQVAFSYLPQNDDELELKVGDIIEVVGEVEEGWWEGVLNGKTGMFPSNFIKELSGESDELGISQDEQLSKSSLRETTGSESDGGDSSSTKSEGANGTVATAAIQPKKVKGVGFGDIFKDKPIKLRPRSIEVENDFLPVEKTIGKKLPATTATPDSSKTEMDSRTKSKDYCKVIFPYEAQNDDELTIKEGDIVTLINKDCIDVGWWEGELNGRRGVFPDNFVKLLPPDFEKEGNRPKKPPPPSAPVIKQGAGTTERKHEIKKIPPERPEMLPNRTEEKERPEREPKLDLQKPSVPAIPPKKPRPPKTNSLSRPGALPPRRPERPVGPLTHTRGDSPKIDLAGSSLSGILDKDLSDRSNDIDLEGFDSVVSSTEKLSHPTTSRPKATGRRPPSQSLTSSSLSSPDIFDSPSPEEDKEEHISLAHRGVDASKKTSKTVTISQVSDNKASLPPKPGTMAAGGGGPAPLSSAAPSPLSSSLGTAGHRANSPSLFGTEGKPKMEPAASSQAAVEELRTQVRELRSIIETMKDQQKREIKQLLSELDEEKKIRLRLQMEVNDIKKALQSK

[2] = biological target: T2, myc-BirA*-MYO1F tail ΔPH (human) (UniProt O00160)
T2 sequence: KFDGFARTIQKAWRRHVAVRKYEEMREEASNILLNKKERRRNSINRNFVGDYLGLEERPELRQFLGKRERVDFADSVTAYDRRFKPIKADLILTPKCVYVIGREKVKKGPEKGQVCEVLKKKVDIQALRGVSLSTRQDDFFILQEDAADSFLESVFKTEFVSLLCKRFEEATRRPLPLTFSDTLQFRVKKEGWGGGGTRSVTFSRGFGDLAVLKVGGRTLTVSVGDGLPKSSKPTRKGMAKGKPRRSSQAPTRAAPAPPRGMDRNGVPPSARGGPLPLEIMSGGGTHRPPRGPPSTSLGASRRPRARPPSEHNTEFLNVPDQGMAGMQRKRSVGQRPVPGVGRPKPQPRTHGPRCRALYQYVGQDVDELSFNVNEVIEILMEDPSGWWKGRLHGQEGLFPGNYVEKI

[3] = biological target: T3, myc-BirA*-MYO1F tail (aa 692-1098) (human) (UniProt O00160)
T3 sequence: T2 sequence with A79K, A89R

[4] = biological target: T1, myc-BirA*-MYO1E tail (aa 692-1108) (human); remark: listed apart in the source
[5] = biological target: T2, myc-BirA*-MYO1F tail ΔPH (human); remark: listed apart in the source
[6] = biological target: T3, myc-BirA*-MYO1F tail (aa 692-1098) (human); remark: listed apart in the source

binding [1]: binds
Molecule: FERMT2 (also known as kindlin-2) (from UniProt Q96AC1 1-680)

binding [1]: no binding
Molecule: SH3KBP1, endogenous in RPE (from UniProt Q96B97 1-665)

binding [2]: binds
binding [3]: binds
Molecule: SH3 Domain Containing Kinase Binding Protein 1 (SH3KBP1), endogenous in U937 (from UniProt Q96B97 1-665)

binding [4]: binds
B1: CDC42EP1 (protein, UniProt Q00587 1-391)
chain: MPGPQGGRGAATMSLGKLSPVGWVSSSQGKRRLTADMISHPLGDFRHTMHVGRGGDVFGDTSFLSNHGGSSGSTHRSPRSFLAKKLQLVRRVGAPPRRMASPPAPSPAPPAISPIIKNAISLPQLNQAAYDSLVVGKLSFDSSPTSSTDGHSSYGLDSGFCTISRLPRSEKPHDRDRDGSFPSEPGLRRSDSLLSFRLDLDLGPSLLSELLGVMSLPEAPAAETPAPAANPPAPTANPTGPAANPPATTANPPAPAANPSAPAATPTGPAANPPAPAASSTPHGHCPNGVTAGLGPVAEVKSSPVGGGPRGPAGPALGRHWGAGWDGGHHYPEMDARQERVEVLPQARASWESLDEEWRAPQAGSRTPVPSTVQANTFEFADAEEDDEVKV

binding [5]: binds
binding [6]: binds
B2: SH3 Domain Binding Protein 2 (SH3BP2), endogenous in U937 (protein, UniProt P78314 1-561)
chain: MAAEEMHWPVPMKAIGAQNLLTMPGGVAKAGYLHKKGGTQLQLLKWPLRFVIIHKRCVYYFKSSTSASPQGAFSLSGYNRVMRAAEETTSNNVFPFKIIHISKKHRTWFFSASSEEERKSWMALLRREIGHFHEKKDLPLDTSDSSSDTDSFYGAVERPVDISLSPYPTDNEDYEHDDEDDSYLEPDSPEPGRLEDALMHPPAYPPPPVPTPRKPAFSDMPRAHSFTSKGPGPLLPPPPPKHGLPDVGLAAEDSKRDPLCPRRAEPCPRVPATPRRMSDPPLSTMPTAPGLRKPPCFRESASPSPEPWTPGHGACSTSSAAIMATATSRNCDKLKSFHLSPRGPPTSEPPPVPANKPKFLKIAEEDPPREAAMPGLFVPPVAPRPPALKLPVPEAMARPAVLPRPEKPQLPHLQRSPPDGQSFRSFSFEKPRQPSQADTGGDDSDEDYEKVPLPNSVFVNTTESCEVERLFKATSPRGEPQDGLYCIRNSSTKSGKVLVVWDETSNKVRNYRIFEKDSKFYLEGEVLFVSVGSMVEHYHTHVLPSHQSLLLRHPYGYTGPR

binding [4]: no binding
B3: SH3BP2, endogenous in RPE (protein, UniProt P78314 1-561)
chain: B2 chain

Reference: publication doi:10.1101/2025.07.04.663186
